Reference: patent US20120276009A1
No constants are given. Whether binding was seen depends on the method and setting. A result given as binding can be weak or reduced; the word gives no strength.

Molecular target: murine pTau (pS409) in cortex (Mus musculus)
Test: Western blot of cortex fractions of TMHT (Tg) and nTg mice with ACI-36-2B6-Ab1 as the blotting antibody (1.6 µg/mL by paragraph 440), murine band, infrared quantification normalised to beta-actin

binding: binds
B1: ACI-36-2B6-Ab1 (antibody, IgG2b, V domains shown)
VH: EVQLQQSGPELVKPGTSVKISCKASGYTFTDYYMNWVKQSHGKSLEWIGDINPNRGGTTYNQKFKGKATLTVDKSSSTAYMELRSLTSEDSAVYYCASYYAVGYWGQGTTLTVSS
VL: DVVMTQTPLSLPVSLGDQASISCRSSQSLVHSHGKTYLHWYLQKPGQSPKLLIYKVSNRFSGVPDRFSGSGSGTDFTLKISRVEAEDLGVYFCSQTAHFPYTFGGGTKLEIK
